According to PubChem BioAssay AID1508600 (Functional Genomics Laboratory (NCATS/FGL), 2020):
Out of some 53,000 sequences screened, about 3,700 (7%) were called active.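 How the source made its calls: active means gene knockdowns whose robust z-score for IL-1 alpha signal is at least 2 or at most -2, so actives lie on both sides; inactive means the rest.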 The list shows a part of the results.

Assay: Components of the Cytosolic LPS Sensing Pathway: Gene Identification via Genome-wide siRNA Screen;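 further: robust z of the log signal after scaling to non-targeting control siRNA wells of the plate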
Settings: RAW264.7 macrophages, IL-1a HTRF, actives lie on both sides, screened at 100 nM (by protocol), cells primed 5 h with Pam3CSK4 first
In short: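 IL-1a HTRF of supernatants after 24 hour LipidA transfection of Pam3CSK4-primed (5 hours) RAW264.7 cells, 48h post-siRNA transfection (100 nM). Scores: percent of plate negative-control median, then log-based robust z-score.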

Sequence	z-score
AACCUCAAAUGUUCAGUCCTT against Lce3f	inactive: 1.04
GGACCAGGAUGAGAAGAUUTT against Trim42	inactive: -0.499
GGUUGAACAACUCUCUGCUTT against Hrh2	inactive: -0.385
CGGCCUCAAUUUACAGCUATT against Naprt	inactive: 0.357
GCCGGGCUCGCCCUGCUCCTT against Plac9a	inactive: 0.497
CCCUUAGACAAACAUGCUATT against Zfp446	inactive: -0.368
GCUGUGCAGAUUAAAUUUGTT against Rsbn1	inactive: -0.558
GGAGAUGGAGAAGUAGAUUTT against Abcf2	inactive: 0.224
GGAAAGAGGAUAUUAAGUUTT against Wdr33	inactive: 1.73
GGCAGUUAUUUCUAUCUUATT against 1700018F24Rik	inactive: 0.683
GGAGAUUCGGCAUUAAGACTT against Gtpbp8	inactive: -0.675
GCUUUUGUAUACCUACUGUTT against Gtf3c3	inactive: -1.02
GCUUCCUUAUUGACAAUGGTT against Rbm19	inactive: 0.596
GCAUCGUGUGCAAGAUCCUTT against Atp4b	active: 2.74
GGUGGUCUCCUACAAUGCCTT against Olfr1451	active: 2.3
GGUGAUUCAUGUGAACUCATT against Zfp27	inactive: -0.511
GGAGAAGAGCAGAAUAUGCTT against Baz1a	inactive: -1.48
GGAUUAAAGAAAGACAUUGTT against Yme1l1	active: -2.04
GGCAUAGCCACUAAAAAAATT against Muc2	inactive: -0.832
GGUAGGGUUUCAUUAUGAATT against Med28	inactive: -1.38
GGAGGUAUUCAAGAUUUGATT against Exoc5	inactive: 0.466
GCUACCUAAGUUGAAAAAGTT against Anp32b	inactive: 0.546

Sequence	z-score
GGGAUACAUCUAUUGAAUCTT against Zfp758	inactive: -1.26
GCACAUUGGCUGUGAGUCATT against Tmem132a	inactive: 0.512
GCAAAGCCCUAUUCCUAAUTT against Vmn2r42	inactive: 1.21
GGCUAAAUCUAGCUACUAATT against Lair1	inactive: 1.89
GGAAGACUUGUUUGACAUUTT against Stk11	inactive: 0.298
GCUAACAACGUGUGCUUCUTT against Fam20a	inactive: -0.174
GCUACAGGAUUUAUACAUGTT against Dhx29	inactive: 0.865
GGUAUGUAACUUCUUCAUUTT against Irf2bpl	inactive: 0.616
GCAGAUUACUUCCAUCAGUTT against Rps20	inactive: -0.988
GCCCUUGUUAGGUCUUGUCTT against Stard8	inactive: -1.91
CCCUGACAUUUGGAAUGUUTT against Gtsf1l	inactive: -1.06
GGUUGGAAAAUGAAUGAAATT against Slc44a2	inactive: 0.236
GCUGUUCCGUAGCCAGAGUTT against Homer3	inactive: 0.382
GGUUAAAGUUAAAUCUGUCTT against C6	active: -2.35
GGAAGAAAGUGAAACUUGATT against Dnajc17	inactive: 0.0498
GGACGAAGAGGAGAAAGAGTT against Ccdc184	inactive: -1.25
GGAUGAAAAAGUUAAGAAGTT against Lmod1	inactive: 0.886
GGAAUCGCUACCCUGACAUTT against Pitx3	inactive: -1.69
GGCUGUUGUGUUAUUUGUUTT against Tusc2	inactive: 0.0201
GGCUGAGAAUCUGGUUGAGTT against Casp12	inactive: -1.57
GGUUAUCAAACAGGUGUUGTT against Aldh3b1	active: 2.22
GGUUCUGUUGUGUGACUAUTT against Mme	inactive: -0.673

Sequence	z-score
CUACACGUAAGGAUGUAUCTT against Fcmr	inactive: -0.774
GCUCCCAGUUCUCUUUCUUTT against Defb44-ps	inactive: 1.41
AGUAUACGAUGACUAUUUCTT against Zfp51	inactive: 1.27
CCCAAUCGGUUAAUUGUUGTT against Vcp	active: -2.37
GCAAGAAAGCAUGGUAUAATT against Slc25a40	inactive: -1.17
GGAUUUGUUCGACCAGAUUTT against Epb41l4b	inactive: 0.831
GGUGGAAGACGUACUUCCUTT against Nfatc1	inactive: 0.191
CCUUGGCACAUGGAUCUAUTT against Tomm22	inactive: 1.36
GCCUAGGUAGUGGAGAUGATT against Nkd1	inactive: -0.666
GCUGGAUAGCACAUGUCUATT against Klk1b16	inactive: -1.94
GGACCUAGAGCGGAGUCUATT against Golga1	inactive: -1.7
CCUAAGGUACCAUUUUAAATT against Clp1	inactive: 0.225
GGGUAAAGUUGUCAGUGGUTT against Cd4	inactive: 0.0342
GCAGCUUAUCACAAUGCUGTT against Asb3	inactive: 0.396
GGAGAAUCCUGAAACAGGGTT against Kif3c	inactive: -0.221
GGACUGGAUGCCACUGGUATT against Cmpk2	inactive: 0.259
CCAAGGCCGUGUCAUUCAUTT against Adssl1	inactive: 0.893
CAGCAAAAACGACCCACCATT against Eef1a1	inactive: -1.13
GGAGGAAAAAGAGAAAAAUTT against Slc16a2	inactive: -0.734
GCUCCACCGAGAAAUUACUTT against Magt1	inactive: 1.63
GCCAUAUCCUUCAAGAGACTT against Cstb	inactive: 0.0313
GGAGUUUGAUGAAUCGUCCTT against Tgds	inactive: 0.41

Sequence	z-score
GGACCUAUGCAGCACUAAATT against Ppp1r11	inactive: 1.73
CGGACUCCUGACAUUAUAATT against Cd33	inactive: 0.429
CCUAUCUCCCUGUUCGAUATT against Rab36	inactive: -1.01
GCGAGAGUUUUUCUUCAACTT against Hoxc11	inactive: 0.385
GCAAAUCAUGACUAUUGUATT against Atat1	inactive: 0.00079
GGUUUUCAGAUCUAGGAUUTT against Casp6	inactive: -0.575
GGUGUCCUAUAACCAAGCATT against Atn1	inactive: -0.347
GGUGAACCAAACAACAAACTT against Sele	inactive: -0.159
GGUCGUGUAUGUCACUGCATT against Slc6a11	inactive: -0.395
CGAAUACUACGCCAAGAUUTT against Abca2	inactive: -0.867
GCUCCAAGUGUUAUUAGUCTT against Rgl2	inactive: 0.291
CCUUUAGAAGUAAACCUCGTT against Usp16	inactive: 1.35
GCACUAUUUUGGAUUAGUCTT against Usp12	inactive: -0.431
GCCUUAUUAGAGAAAAGAGTT against Krt1	inactive: -0.141
GGAGGCAGCAAAAAGGUUGTT against Olfr1110	inactive: -0.419
GGGUGAUCGCACGAUUGAGTT against Casq2	inactive: 0.364
GAAGUCUGUGACCAGUUCCTT against Fgf2os	inactive: 0.735
GGCAUAUCGAGUGCUCAGUTT against Dnajc4	inactive: -0.905
GGUCAUUCCGGGAUUUUUUTT against Ibtk	inactive: -0.777
GGAAAUUUCAGAGCUCAAGTT against Trpc2	active: -2.81
GGAGUAGCAAAGAACUGCUTT against Arpc4	inactive: -0.762
CGGCAGUCCUUGUUAGGUATT against Olfr374	inactive: 1.33

23 entries from above, with bars between the fields.
Sequence | z-score
GGAGGAAAAAGAGAAAAAUTT against Slc16a2 | inactive: -0.734
GCUCCACCGAGAAAUUACUTT against Magt1 | inactive: 1.63
GCCAUAUCCUUCAAGAGACTT against Cstb | inactive: 0.0313
GGAGUUUGAUGAAUCGUCCTT against Tgds | inactive: 0.41
GGACCUAUGCAGCACUAAATT against Ppp1r11 | inactive: 1.73
CCUAUCUCCCUGUUCGAUATT against Rab36 | inactive: -1.01
GCGAGAGUUUUUCUUCAACTT against Hoxc11 | inactive: 0.385
GCAAAUCAUGACUAUUGUATT against Atat1 | inactive: 0.00079
GGUUUUCAGAUCUAGGAUUTT against Casp6 | inactive: -0.575
GGUGUCCUAUAACCAAGCATT against Atn1 | inactive: -0.347
GGUGAACCAAACAACAAACTT against Sele | inactive: -0.159
GGUCGUGUAUGUCACUGCATT against Slc6a11 | inactive: -0.395
CGAAUACUACGCCAAGAUUTT against Abca2 | inactive: -0.867
GCUCCAAGUGUUAUUAGUCTT against Rgl2 | inactive: 0.291
CCUUUAGAAGUAAACCUCGTT against Usp16 | inactive: 1.35
GCACUAUUUUGGAUUAGUCTT against Usp12 | inactive: -0.431
GCCUUAUUAGAGAAAAGAGTT against Krt1 | inactive: -0.141
GGAGGCAGCAAAAAGGUUGTT against Olfr1110 | inactive: -0.419
GGGUGAUCGCACGAUUGAGTT against Casq2 | inactive: 0.364
GGUCAUUCCGGGAUUUUUUTT against Ibtk | inactive: -0.777
GGAAAUUUCAGAGCUCAAGTT against Trpc2 | active: -2.81
GGAGUAGCAAAGAACUGCUTT against Arpc4 | inactive: -0.762
CGGCAGUCCUUGUUAGGUATT against Olfr374 | inactive: 1.33

(cont.)

Sequence	z-score
GCUCUCACACAUGUUUGUUTT against Eddm3b	inactive: 0.222
GGAUGAAGUAGACUUAGAUTT against Depdc1b	inactive: 1.16
CCAACUGUUUGAGCUCUAUTT against Fam126b	inactive: 0.29
GGACAGUGAAUCUAUUGCUTT against Herc1	inactive: -1.41
GGGCUGAAGUGAAAACAGCTT against Mmp8	inactive: -0.523
CCUGAAAGUCGUUUAUCGCTT against Il7r	active: 2.74
GGCUUUGUAUAUUCUGUUGTT against Fkbp6	inactive: -0.635
GGUUCACGGGUUCUAAGAUTT against Eif1b	active: 2.35
GGAAGGAAGAAAAAAUAGUTT against Acat1	inactive: 1.09
GUCAUCACAAGUCAAGAAGTT against Prol1	inactive: -1.25
GGAUUUCCGUUGUCACUAATT against Krt34	inactive: 1.92
GGAUUUGACUGAGAAAGACTT against Psg27	inactive: -0.906
GGCUACCAAUGAGACCAAUTT against Snap91	inactive: 0.591
CCAGAGUGUUCACAGAACATT against Batf2	inactive: -1.43
GCAUGCAGACUUACAGAAGTT against Mnd1	inactive: 0.827
GCACAAGUACUUCGAGCGCTT against Insm1	inactive: 0.683
GCUAAAGCCGUACUCUGAGTT against Mark1	inactive: -1.65
GGCUAUUACUUUUAAGAACTT against Capn1	inactive: 0.0643
GCGGGACUGACCUCUUAAUTT against Guk1	inactive: -0.244
